The results in this text go back to patent publication US20260085101A1 (THE UNIVERSITY OF SYDNEY, priority 2022, published 2026).

A short description of data set [1]: general procedure: Fmoc solid-phase peptide synthesis; Rink amide resin (0.49 mmol/g). The conditions noted are these: conjugation step, one disulfide bridge, sequence written open.
Data set [2] can be described thus: general procedure: Fmoc solid-phase peptide synthesis; Rink amide resin. The conditions noted are these: whole synthesis, scale 50 μmol portion cleaved.

The substance “(CVRKIEIVRKK)2(Peg3)2(EYEK(Palm)EYE)2-C′” showed a conjugation yield in data set [1] of 36%.
With (CVRKIEIVRKK)2(Peg3)2EYEK(Palm)EYE-C′, the conjugation yield in data set [1] came to 8%.
With N′-CVRKIEIVRKK(Peg3)2EYEK(Palm)EYE-C′, in data set [2], the crude mass is 53 mg and the crude yield was found to be 36%.
As to N′-CVRKIEIVRKK-C′, in data set [2], the isolated mass stood at 22.6 mg and the isolated yield is listed as 32%.
